The nature of this assay: qHTS Assay for Modulators of Lamin A Splicing. To be noted: HeLa LMNA splicing GFP/RFP minigene ratio, 48 h. Put shortly: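 S3 HeLa cells stably expressing lamin A-EGFP splicing minigene plus DsRed2, 600 cells/well, 48 h compound exposure at 37C. Laser-scanning cytometry; analysed as GFP (500-530 nm)/RFP (575-640 nm) total intensity ratio; 0.5% DMSO vehicle.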
The mark [1] stands for this setting: measured here: GFP splicing reporter channel.
Setting [2] is: measured here: RFP viability control channel.

This is one part of the list. These are further read-outs of the screen, such as a control signal, another cell line or another target. No call is given for them. Compounds called inactive in the main read-out are mostly missing here. Words in brackets tell the shape of the fitted curve; partial curves, single points and poor fits give uncertain potencies.

Consider `O=C1c2ccccc2C(Nc2cccc(C(F)(F)F)c2)N1Cc1ccco1` (stereo unspecified), for which the AC50 is, setting by setting: under setting [1], 10 µM [rising, partial curve, poor fit]; under setting [2], 11.2 µM [rising, partial curve].

As for `Cc1ccc(-n2ncc(C#N)c2/N=C/N(C)C)cc1`, the AC50 under setting [1] is 20 µM [rising, single point].

In the case of `CCN(CC)c1ccc(NC(=O)c2cccc(C)c2OC)c(C)c1`, the AC50 under setting [2] was 15.8 µM [rising, single point].

In the case of `Cc1c(C(=O)Nc2cccc(Cl)c2)oc2ccc(S(=O)(=O)N(C)C3CCCCC3)cc12`, under setting [1], the AC50 is 0.158 µM [falling, single point].

With `COc1cc(C)c(C)cc1S(=O)(=O)Nc1cccc(-c2ccc(N3CCOCC3)nn2)c1`, the AC50 under setting [2] is 3.55 µM [rising, full curve, poor fit].

As for `COC(=O)c1[nH]c2ccc(F)cc2c1NC(=O)CCN1CC(C)OC(C)C1` (stereo unspecified), under setting [1], the AC50 was 3.16 µM [rising, single point].

`COc1ccc(CCNC(=O)C(=O)NCC(c2ccco2)S(=O)(=O)c2ccc(F)cc2)cc1` (stereo unspecified): the half-maximal activity concentration (AC50) under setting [2] was 1.26 µM [falling, single point].

In the case of `Fc1cccc(-c2cc3nc(-c4ccccc4)cc(N4CCC5(CC4)OCCO5)n3n2)c1`, under setting [2], the AC50 was 31.6 µM [rising, single point].

On to `O=C(Cn1[nH]c(=O)c2ccccc2c1=O)Nc1ccc2c(c1)CCC2`, for which, under setting [2], the AC50 is 10 µM [rising, single point].

On to `CC(=O)Nc1sc(/C(C#N)=C/c2ccc(Cl)c(Cl)c2)nc1-c1ccc(C)cc1`, for which the AC50 under setting [2] was 0.0158 µM [falling, partial curve, poor fit].

For `CCn1c(/C=C2\C(=O)N(C)c3ccccc32)nc2ccccc2c1=O`, the AC50 under setting [1] is 8.91 µM [rising, partial curve, poor fit].

As for `CN(C)CCNC(=O)c1coc(=O)c(Br)c1`, the concentration at half-maximal activity (AC50) is, setting by setting: under setting [1], 5.01 µM [falling, full curve, poor fit]; under setting [2], 8.91 µM [falling, partial curve, poor fit].

`Cn1ccc2c(OCC(=O)Nc3cc(C(F)(F)F)ccc3Cl)cccc2c1=O`: the AC50 under setting [1] was 0.891 µM [falling, full curve, poor fit].

`CCCc1cc(C(=O)Nc2nccs2)cs1`: the AC50 is 12.6 µM [rising, single point] under setting [1] and 14.1 µM [rising, single point] under setting [2].

As to `CCS(=O)(=O)Nc1ccc(C2=NN(S(C)(=O)=O)C(c3cccs3)C2)cc1` (stereo unspecified), the AC50 under setting [2] was 0.708 µM [rising, full curve].

As for `CC(=O)N1CCc2cc(S(=O)(=O)CCC(=O)NCc3ccc(Cl)cc3)ccc21`, the AC50 was 20 µM [falling, partial curve] under setting [1] and 0.00891 µM [falling, full curve] under setting [2].

Take `Cc1cccc(NC(=O)C(=O)NCC(c2ccc3c(c2)OCO3)N2CCN(C)CC2)c1C` (stereo unspecified): the AC50 under setting [2] is 0.447 µM [falling, partial curve, poor fit].

As for `COc1ccc(C(=O)/C=C/c2ccc(OC)c(O)c2)c(F)c1`, the AC50 by setting is: under setting [1], 8.91 µM [falling, partial curve, poor fit]; under setting [2], 3.16 µM [falling, partial curve].

Regarding `CCOc1ccccc1N=C1SC(CC(=O)Nc2ccc(OC)cc2OC)C(=O)N1CCC1=CCCCC1` (stereo unspecified), the AC50 under setting [1] was 14.1 µM [rising, single point] and the AC50 under setting [2] was 25.1 µM [rising, single point].

With `CC[C@]1(O)C[C@H]2CN(CCc3c([nH]c4ccccc34)[C@@](C(=O)OC)(c3cc4c(cc3OC)N(C=O)[C@H]3[C@@](O)(C(=O)OC)[C@H](OC(C)=O)[C@]5(CC)C=CCN6CC[C@]43[C@@H]65)C2)C1`, the AC50 under setting [1] is 0.282 µM [rising, full curve] and the AC50 under setting [2] is 0.00112 µM [rising, full curve, poor fit].

For `COc1ccccc1/C=C1\SC(=S)N(CC(=O)Nc2nnc(C)s2)C1=O`, the AC50 under setting [2] is 17.8 µM [falling, partial curve, poor fit].

In the case of `Cc1ccc(CNS(=O)(=O)NCc2cccs2)cc1`, the AC50 under setting [2] was 4.47 µM [falling, single point].

As for `COCCCNC(=O)c1oc2ccc(S(=O)(=O)N(C)C3CCCCC3)cc2c1C`, the AC50 under setting [2] is 22.4 µM [rising, single point].

On to `CCOC(=O)C1CC(c2ccc(Cl)cc2)=NNC1=O` (stereo unspecified), for which the AC50 under setting [2] is 0.141 µM [falling, full curve, poor fit].

As to `Cc1cc(Nc2cccc(Cl)c2)nc2ccc(NC(=O)Cc3cccc(C(F)(F)F)c3)cc12`, the AC50 is, setting by setting: under setting [1], 10 µM [falling, partial curve]; under setting [2], 10 µM [falling, partial curve].

For `Cn1c(=O)n(C/C=C/c2ccccc2)c(=O)c2c1nc1n2CCCN1Cc1ccccc1`, the AC50 under setting [2] was 20 µM [rising, single point].

On to `C=CCNC(=O)C1CCN(c2ccc(S(=O)(=O)N3CCOCC3)cc2[N+](=O)[O-])CC1`, for which the AC50 under setting [2] is 0.00398 µM [rising, full curve, poor fit].

In the case of `COc1cc2cc(CN(Cc3cccs3)C(=S)Nc3ccc(C)cc3)c(=O)[nH]c2cc1OC`, the AC50 was 3.98 µM [rising, partial curve, poor fit] under setting [1] and 3.98 µM [rising, partial curve] under setting [2].

Consider `N#CC1=C(N)Oc2ccc3ccc(O)cc3c2C1c1cccnc1` (stereo unspecified), for which the AC50 under setting [2] was 5.62 µM [rising, partial curve].

As for `Cc1ccc(-c2nc(C3CCCN(S(=O)(=O)c4ccc(C)cc4)C3)no2)cc1` (stereo unspecified), the AC50 under setting [2] is 12.6 µM [rising, single point].

Consider `Cc1ccc(Nc2ncccc2C(=O)O)cc1C`, for which the AC50 by setting is: under setting [1], 2 µM [rising, partial curve]; under setting [2], 10 µM [rising, partial curve].

With `COc1cc(OC)c(C(=O)OC(C)C(=O)Nc2cccc(C(F)(F)F)c2)cc1OC` (stereo unspecified), the AC50 under setting [1] was 10 µM [rising, single point] and the AC50 under setting [2] was 14.1 µM [rising, single point].

For `CCCOc1ccc(NC(=O)CC2C(=O)N(C)C(=S)N2Cc2ccc3c(c2)OCO3)cc1` (stereo unspecified), the AC50 under setting [2] is 35.5 µM [rising, single point].

Turning to `CCc1ccccc1NC(=O)C1=C(C)C(=O)OC12CCCCCC2`, the AC50 under setting [1] is 35.5 µM [rising, single point].

In the case of `CC(O)C(NS(=O)(=O)c1ccc(Cl)cc1)C(=O)OCC(=O)c1c[nH]c2ccccc12` (stereo unspecified), the AC50 reads like this: under setting [1], 10 µM [falling, single point]; under setting [2], 17.8 µM [falling, partial curve, poor fit].

Turning to `CNc1ccc(Br)cc(C(=O)/C=C/c2ccc(Cl)cc2Cl)c1=O`, the AC50 under setting [1] was 14.1 µM [falling, single point].

Take `CCOC(=O)N/N=C/c1cn(Cc2ccccc2Cl)c2ccccc12`: the AC50 reads like this: under setting [1], 3.55 µM [rising, full curve]; under setting [2], 11.2 µM [rising, partial curve].

Regarding `COC(=O)c1ccccc1NC(=O)N1CCc2c(sc3c2CCCC3)C1c1ccc(F)cc1` (stereo unspecified), the AC50 under setting [2] is 1.26 µM [rising, partial curve].

As for `O=C(COc1ccccc1)NC1CC(=O)N(c2ccc3c(c2)OCCO3)C1` (stereo unspecified), the AC50 under setting [2] was 0.00316 µM [falling, full curve, poor fit].

As to `Cc1cc(C)c(C)c(S(=O)(=O)NCCCN2CCOCC2)c1C`, under setting [1], the AC50 was 0.282 µM [rising, full curve, poor fit].

In the case of `C=CCN=c1scc(-c2ccc3c(c2)NC(=O)CO3)n1/N=C(\C)c1ccccn1`, under setting [2], the AC50 is 5.62 µM [rising, partial curve].

In the case of `CCOc1cccc2c1OC(c1cc(OC)c(OC)c(OC)c1)N1N=C(c3ccc(C)o3)CC21` (stereo unspecified), the AC50 under setting [2] was 12.6 µM [rising, single point].

Regarding `COC(=O)CSC1=C(C#N)C(c2ccccc2OC)C(C(=O)OC)C(=O)N1` (stereo unspecified), the AC50 under setting [2] is 0.0282 µM [falling, full curve, poor fit].

`COc1ccc(C(=O)C2CCCN(C(=O)c3cccnc3SC)C2)c(C)c1` (stereo unspecified): the AC50 reads like this: under setting [1], 35.5 µM [falling, single point]; under setting [2], 35.5 µM [falling, single point].

Regarding `CCOC(=O)c1sc(NC(=O)CSc2nnc(C(C)C)n2CC)nc1C`, under setting [1], the AC50 is 12.6 µM [rising, single point].

Take `O=C(c1ccc(Cl)cc1)C1CCCN(Cc2cccn2-c2ccccn2)C1` (stereo unspecified): the concentration at half-maximal activity (AC50) under setting [1] is 1 µM [falling, full curve].

Take `O=C(CCCCCCCC(=O)c1ccccc1)c1ccccc1`: the AC50 is, setting by setting: under setting [1], 22.4 µM [falling, single point]; under setting [2], 0.0398 µM [falling, full curve, poor fit].

Take `COc1cc(S(=O)(=O)N2CCN(Cc3ccc4c(c3)OCO4)CC2)c(C)cc1C`: the AC50 reads like this: under setting [1], 35.5 µM [rising, single point]; under setting [2], 35.5 µM [rising, single point].

Consider `CCCn1c(SCC(=O)N2N=C3/C(=C/c4ccc(OC)cc4)CCCC3C2c2ccc(OC)cc2)n[nH]c1=O` (stereo unspecified), for which the concentration at half-maximal activity (AC50) under setting [1] was 14.1 µM [rising, single point] and the AC50 under setting [2] is 15.8 µM [rising, partial curve].

For `Cc1nc(NC(=O)CSc2nnc(N)s2)c(Cl)cc1Cl`, the AC50 under setting [2] was 0.562 µM [rising, partial curve, poor fit].

Take `CCOC(=O)C1=C(CSc2nncn2C)NC(=O)NC1c1cc(OCC)ccc1OCC` (stereo unspecified): under setting [1], the AC50 is 0.0794 µM [rising, full curve, poor fit].

Regarding `Cc1ccc(-n2nnnc2SC(C)C(=O)Nc2ccc(Cl)cn2)cc1` (stereo unspecified), under setting [1], the concentration at half-maximal activity (AC50) is 20 µM [rising, single point].

Consider `CCc1ccc(OCC(=O)N/N=C(\C)c2ccc(O)cc2O)cc1`, for which the AC50 under setting [2] was 25.1 µM [rising, partial curve].

As for `COc1ccc(-c2cnnn2-c2ccc(NC(=O)c3ccc(S(=O)(=O)N4CCCCC4)cc3)cc2)cc1`, the AC50 under setting [2] is 10 µM [rising, partial curve].

The values are drawn from PubChem BioAssay AID1487 (National Center for Advancing Translational Sciences (NCATS), 2009).
